Data set [1] concerns the target BAFF-R on Jeko-1 cells (Homo sapiens) (UniProt Q96RJ3). In words: binding assay. The settings on record: protein on the cell surface.
The test system of data set [2] is CCRF-CEM cell surface (BAFF-R negative control cells) (Homo sapiens). As to the kind of experiment: binding assay. The settings on record: protein on the cell surface.
In data set [3] the target is BAFF-R on Jeko-1 cells (Homo sapiens) (UniProt Q96RJ3). In words: flow cytometry. Particulars: 2'-F pyrimidines (2'-F-C, 2'-F-U); Cy3-labelled; binding and internalization in BAFF-R+ Jeko-1 cells, 37 C; protein on the cell surface; label: 5'-32P or Cy3.
[4] abbreviates: 2'-F pyrimidines in transcribed aptamer strand, Cy3-labelled chimera, confocal internalization in Jeko-1, label: 32P, variant of R-1 aptamer.

Sequences of proteins named here, by UniProt entry; tags and fusion partners are left off.
UniProt Q96RJ3, whole entry: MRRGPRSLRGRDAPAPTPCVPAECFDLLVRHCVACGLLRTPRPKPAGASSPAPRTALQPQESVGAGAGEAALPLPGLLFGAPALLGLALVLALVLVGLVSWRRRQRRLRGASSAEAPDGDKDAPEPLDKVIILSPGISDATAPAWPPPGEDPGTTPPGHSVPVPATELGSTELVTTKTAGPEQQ

Where cells or extracts were used, other partners may take part. For some of these results: Construct, isoform or probe ends are uncertain for at least one entry. For some of these results: Negatives hold for the conditions tested.

Regarding “GGGAGGACGAUGCGGAUAACUAUUGUGCUAGAGGGCUUAUUUAUGUGAGCCGGUUGAUAGUUGCGCAGACGACUCGCCCGA [R-14 aptamer]”, the binding result in data set [1] (2'-F pyrimidines (2'-F-C, 2'-F-U), Cy3-labelled, confocal, internalized in Jeko-1 cells, label: 5'-32P or Cy3) is on record as “binds”.
On to “GGGAGGACGAUGCGGGAGGCUCAACAAUGAUAGAGCCCGCAAUGUUGAUAGUUGUGCCCAGUCUGCAGACGACUCGCCCGAUUUUUUUUGAGAACGGAAGCUGCAGAAAGAUACGA / GUAUCUUUCUGCAGCUUCCGUUCUC [R-1-STAT3 27-mer OVH chimera]”, for which the binding result in data set [1] (setting [4]) is “binds”.
For the sequence “GGGAGGACGAUGCGGGAGGCUCAACAAUGAUAGAGCCCGCAAUGUUGAUAGUUGUGCCCAGUCUGCAGACGACUCGCCCGAUUUUUUUUUCAGUCGUAUCUUUCUGCAGCUUCCGU / GGAAGCUGCAGAAAGAUACGACUGA [R-1-STAT3 27-mer SWAP chimera]”, in data set [1] (setting [4]), the binding result is given as “binds”.
As for “GGGAGGACGAUGCGGGAGGCUCAACAAUGAUAGAGCCCGCAAUGUUGAUAGUUGUGCCCAGUCUGCAGACGACUCGCCCGA [R-1 aptamer]”, the binding result was “no binding” in data set [2] (2'-F pyrimidines (2'-F-C, 2'-F-U), Cy3-labelled, confocal, no uptake by CCRF-CEM control cells, label: 5'-32P or Cy3) and “binds” in data set [3].
In the case of “GGGAGGACGAUGCGGGAGGCUCAACAAUGAUAGAGCCCGCAAUGUUGAUAGUUGUGCCCAGUCUGCAGACGACUCGCCCGAUUCCACAGAUGUGAAGUUCAUUUCCAA / UUGGAAAUGAACUUCACAUCUGUGGCA [R-1 D-1 chimera (CCND1 siRNA design 1)]”, the binding result in data set [2] (2'-F pyrimidines in transcribed aptamer-sense strand, Cy3-labelled chimera, no uptake by CEM cells, label: 32P, variant of R-1 aptamer) is “no binding”; in data set [1] (2'-F pyrimidines in transcribed aptamer-sense strand, Cy3-labelled chimera, confocal internalization in Jeko-1, label: 32P, variant of R-1 aptamer), “binds”.

For the origin of these results see US20160348113.
